Reference: PubChem BioAssay AID1508597 (Cure First, 2020)

- Test: 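Knock-downs altering ovarian cancer cell survival with or without PARP inhibitor rucaparib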 (primary screen)
- Cell system: human ovarian carcinoma lines grown from tumours: OCI-P5x (papillary serous) and OCI-C5x (clear cell)
- Reagent: siRNA pool against human genes, 1.25 pmol siRNA per well
- Time to read-out: 72 h or 96 h, depending on the cell culture
- Challenge: rucaparib 20 µM (about IC30) or vehicle, present until read-out
- Read-out: 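Luminescent ATP-based viability assay read 72 or 96 h after transfection, depending on culture, given as normalised percent viability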
- Reading the numbers: viability, normalised: higher = more viable cells remaining
- Hit rule: 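a well counts as a hit if its normalised viability is under 80 percent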
- Meaning of the calls: active = viability under 80%; inactive = viability 80% or more
The whole screen tested about 2,100 reagents; below is a part drawn at random. 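Calls flag viability under 80% in either arm, not effects specific to rucaparib; the reference for percent is not stated.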 Unmarked entries are inactive. Not stated in the record: the 100% reference.

CCK (cholecystokinin), rucaparib or vehicle Rucaparib, cell line OCI-C5x (clear cell), technical replicate 1 showed viability, normalised (%) = 54.7 (active).
For CCK (cholecystokinin), rucaparib or vehicle Rucaparib, cell line OCI-C5x (clear cell), technical replicate 2 the deposit lists viability, normalised (%) = 46.9 (active).
CCK (cholecystokinin), rucaparib or vehicle Rucaparib, cell line OCI-C5x (clear cell), technical replicate 3 showed viability, normalised (%) = 54.4 (active).
CCK (cholecystokinin), rucaparib or vehicle Rucaparib, cell line OCI-P5x (serous), technical replicate 1 gave viability, normalised (%) = 71.4 (active).
CCK (cholecystokinin), rucaparib or vehicle Rucaparib, cell line OCI-P5x (serous), technical replicate 2 scored viability, normalised (%) = 75.4 (active).
For CCK (cholecystokinin), rucaparib or vehicle Rucaparib, cell line OCI-P5x (serous), technical replicate 3 the deposit lists viability, normalised (%) = 23.3 (active).
With CCK (cholecystokinin), rucaparib or vehicle Vehicle, cell line OCI-C5x (clear cell), technical replicate 1 the deposit lists viability, normalised (%) = 39.2 (active).
For CCK (cholecystokinin), rucaparib or vehicle Vehicle, cell line OCI-C5x (clear cell), technical replicate 2, the entry reads viability, normalised (%) = 57.3 (active).
With CCK (cholecystokinin), rucaparib or vehicle Vehicle, cell line OCI-C5x (clear cell), technical replicate 3 the deposit lists viability, normalised (%) = 40.6 (active).
CCK (cholecystokinin), rucaparib or vehicle Vehicle, cell line OCI-P5x (serous), technical replicate 1 showed viability, normalised (%) = 49.1 (active).
For CCK (cholecystokinin), rucaparib or vehicle Vehicle, cell line OCI-P5x (serous), technical replicate 2, the entry reads viability, normalised (%) = 76.1 (active).
CCK (cholecystokinin), rucaparib or vehicle Vehicle, cell line OCI-P5x (serous), technical replicate 3 gave viability, normalised (%) = 80.5.
PCDHB16 (protocadherin beta 16), rucaparib or vehicle Rucaparib, cell line OCI-C5x (clear cell), technical replicate 1 gave viability, normalised (%) = 46.7 (active).
For PCDHB16 (protocadherin beta 16), rucaparib or vehicle Rucaparib, cell line OCI-C5x (clear cell), technical replicate 2, the entry reads viability, normalised (%) = 42.5 (active).
With PCDHB16 (protocadherin beta 16), rucaparib or vehicle Rucaparib, cell line OCI-C5x (clear cell), technical replicate 3 the deposit lists viability, normalised (%) = 33.9 (active).
With PCDHB16 (protocadherin beta 16), rucaparib or vehicle Rucaparib, cell line OCI-P5x (serous), technical replicate 1, the entry reads viability, normalised (%) = 47.5 (active).
For PCDHB16 (protocadherin beta 16), rucaparib or vehicle Rucaparib, cell line OCI-P5x (serous), technical replicate 2, the values are viability, normalised (%) = 43.2 (active).
With PCDHB16 (protocadherin beta 16), rucaparib or vehicle Rucaparib, cell line OCI-P5x (serous), technical replicate 3, the values are viability, normalised (%) = 51.6 (active).
PCDHB16 (protocadherin beta 16), rucaparib or vehicle Vehicle, cell line OCI-C5x (clear cell), technical replicate 1 showed viability, normalised (%) = 38.4 (active).
With PCDHB16 (protocadherin beta 16), rucaparib or vehicle Vehicle, cell line OCI-C5x (clear cell), technical replicate 2, the values are viability, normalised (%) = 26.5 (active).
PCDHB16 (protocadherin beta 16), rucaparib or vehicle Vehicle, cell line OCI-C5x (clear cell), technical replicate 3 gave viability, normalised (%) = 35.2 (active).
With PCDHB16 (protocadherin beta 16), rucaparib or vehicle Vehicle, cell line OCI-P5x (serous), technical replicate 1, the values are viability, normalised (%) = 59.8 (active).
PCDHB16 (protocadherin beta 16), rucaparib or vehicle Vehicle, cell line OCI-P5x (serous), technical replicate 2 scored viability, normalised (%) = 41.8 (active).
With PCDHB16 (protocadherin beta 16), rucaparib or vehicle Vehicle, cell line OCI-P5x (serous), technical replicate 3, the entry reads viability, normalised (%) = 95.4.
TANK (TRAF family member associated NFKB activator), rucaparib or vehicle Rucaparib, cell line OCI-C5x (clear cell), technical replicate 1 showed viability, normalised (%) = 58.7 (active).
With TANK (TRAF family member associated NFKB activator), rucaparib or vehicle Rucaparib, cell line OCI-C5x (clear cell), technical replicate 2, the values are viability, normalised (%) = 66.8 (active).
TANK (TRAF family member associated NFKB activator), rucaparib or vehicle Rucaparib, cell line OCI-C5x (clear cell), technical replicate 3 gave viability, normalised (%) = 65.5 (active).
For TANK (TRAF family member associated NFKB activator), rucaparib or vehicle Rucaparib, cell line OCI-P5x (serous), technical replicate 1, the values are viability, normalised (%) = 79.5 (active).
For TANK (TRAF family member associated NFKB activator), rucaparib or vehicle Rucaparib, cell line OCI-P5x (serous), technical replicate 2, the entry reads viability, normalised (%) = 55.7 (active).
TANK (TRAF family member associated NFKB activator), rucaparib or vehicle Rucaparib, cell line OCI-P5x (serous), technical replicate 3 showed viability, normalised (%) = 77.8 (active).
For TANK (TRAF family member associated NFKB activator), rucaparib or vehicle Vehicle, cell line OCI-C5x (clear cell), technical replicate 1 the deposit lists viability, normalised (%) = 80.5.
For TANK (TRAF family member associated NFKB activator), rucaparib or vehicle Vehicle, cell line OCI-C5x (clear cell), technical replicate 2, the values are viability, normalised (%) = 70.7 (active).
For TANK (TRAF family member associated NFKB activator), rucaparib or vehicle Vehicle, cell line OCI-C5x (clear cell), technical replicate 3, the entry reads viability, normalised (%) = 78.5 (active).
For TANK (TRAF family member associated NFKB activator), rucaparib or vehicle Vehicle, cell line OCI-P5x (serous), technical replicate 1, the entry reads viability, normalised (%) = 76.1 (active).
For TANK (TRAF family member associated NFKB activator), rucaparib or vehicle Vehicle, cell line OCI-P5x (serous), technical replicate 2, the values are viability, normalised (%) = 67.1 (active).
TANK (TRAF family member associated NFKB activator), rucaparib or vehicle Vehicle, cell line OCI-P5x (serous), technical replicate 3 showed viability, normalised (%) = 79.9 (active).
With TLE1 (TLE family member 1, transcriptional corepressor), rucaparib or vehicle Rucaparib, cell line OCI-C5x (clear cell), technical replicate 1 the deposit lists viability, normalised (%) = 50.9 (active).
For TLE1 (TLE family member 1, transcriptional corepressor), rucaparib or vehicle Rucaparib, cell line OCI-C5x (clear cell), technical replicate 2 the deposit lists viability, normalised (%) = 53.6 (active).
TLE1 (TLE family member 1, transcriptional corepressor), rucaparib or vehicle Rucaparib, cell line OCI-C5x (clear cell), technical replicate 3 showed viability, normalised (%) = 40.4 (active).
With TLE1 (TLE family member 1, transcriptional corepressor), rucaparib or vehicle Rucaparib, cell line OCI-P5x (serous), technical replicate 1, the entry reads viability, normalised (%) = 63.5 (active).
For TLE1 (TLE family member 1, transcriptional corepressor), rucaparib or vehicle Rucaparib, cell line OCI-P5x (serous), technical replicate 2, the values are viability, normalised (%) = 54.9 (active).
TLE1 (TLE family member 1, transcriptional corepressor), rucaparib or vehicle Rucaparib, cell line OCI-P5x (serous), technical replicate 3 scored viability, normalised (%) = 62 (active).
For TLE1 (TLE family member 1, transcriptional corepressor), rucaparib or vehicle Vehicle, cell line OCI-C5x (clear cell), technical replicate 1 the deposit lists viability, normalised (%) = 32.7 (active).
For TLE1 (TLE family member 1, transcriptional corepressor), rucaparib or vehicle Vehicle, cell line OCI-C5x (clear cell), technical replicate 2, the values are viability, normalised (%) = 36.9 (active).
TLE1 (TLE family member 1, transcriptional corepressor), rucaparib or vehicle Vehicle, cell line OCI-C5x (clear cell), technical replicate 3 showed viability, normalised (%) = 49.4 (active).
With TLE1 (TLE family member 1, transcriptional corepressor), rucaparib or vehicle Vehicle, cell line OCI-P5x (serous), technical replicate 1, the values are viability, normalised (%) = 84.3.
With TLE1 (TLE family member 1, transcriptional corepressor), rucaparib or vehicle Vehicle, cell line OCI-P5x (serous), technical replicate 2, the values are viability, normalised (%) = 74 (active).
With TLE1 (TLE family member 1, transcriptional corepressor), rucaparib or vehicle Vehicle, cell line OCI-P5x (serous), technical replicate 3, the entry reads viability, normalised (%) = 79.5 (active).

Laid out differently: entries from further up
TANK (TRAF family member associated NFKB activator), rucaparib or vehicle Vehicle, cell line OCI-C5x (clear cell), technical replicate 2
- viability, normalised (%): 70.7 (active)

TANK (TRAF family member associated NFKB activator), rucaparib or vehicle Vehicle, cell line OCI-C5x (clear cell), technical replicate 3
- viability, normalised (%): 78.5 (active)

TANK (TRAF family member associated NFKB activator), rucaparib or vehicle Vehicle, cell line OCI-P5x (serous), technical replicate 1
- viability, normalised (%): 76.1 (active)
